78 molecules from publication PMC12040169 (PLOS Biology, 2025) can be followed below.

This is one part of the list.

This test has as its system T1, CTL2-GFP (C. trachomatis L2/434/Bu, GFP-expressing).
T1 construct: L2/434/Bu, GFP-expressing
Further details: species or system HeLa; Intracellular C. trachomatis growth in HeLa cells, bulk GFP fluorescence relative to DMSO. The settings on record: bulk GFP, single well; 28.5 h, 10 µM; inhibitor.
Regarding `CCOC(=O)c1sc(NC(=O)Nc2cccc(Cl)c2)c(C(N)=O)c1C` [CBK262658], the “% of control remaining” value is 114.415%.

`Fc1ccc(CCNC(=S)NC2CCCC2)cc1` [CBK266175]: the “% of control remaining” value came out at 119.675%. In the case of `O=S(=O)(Nc1nccnc1-c1cccs1)C1CC1` [CBK050764] it was 163.587%; in that of `O=C1CC(Sc2ccccc2)C(=O)N1c1ccc(Cc2ccc(N3C(=O)CC(Sc4ccccc4)C3=O)cc2)cc1` (stereo not drawn) [CBK263797], 90.9398%; in that of `CCN(Cc1c[nH]nc1-c1ccc(OC)cc1F)CC1CCCO1` (stereo not drawn) [CBK307350], 118.596%.

For `CCOC(=O)c1sc2nc(C)ccc2c1N` [CBK115377], the “% of control remaining” value was determined as 90.9121%. With `Cc1cc([N+](=O)[O-])cc[n+]1[O-]` [CBK261014] the figure was 86.3096%; with `CC(C)(C)OC(=O)N1CCC[C@H]1C(=O)c1cccnc1` [CBK284280], 61.5192%; with `COc1ccc(C(c2ccccc2C)N(C)C(=O)C2CCNCC2)cn1` (stereo not drawn) [CBK074124], 116.691%.

On to `Brc1ccc(Nc2ncnc3[nH]cnc23)cc1` [CBK287386], for which the “% of control remaining” value is on record as 172.337%. In the case of `O=C(O)COc1ccc(Br)cc1C(c1c[nH]c2ccccc12)c1c[nH]c2ccccc12` [CBK265720] it was 159.992%; in that of `N#Cc1ccc(CN2CCOC3(CCN(C(=O)OCc4ccccc4)CC3)C2)cc1` [CBK161103T], 67.8028%. With `O=C(CSc1ncnc2ccccc12)NCc1ccco1` [CBK287509] the figure was 122.226%; with `CCCc1ccc(S(=O)(=O)n2ccn(-c3ccc(Oc4ccccc4)cc3)c2=O)cc1` [CBK106648], 105.656%; with `Cc1ccccc1OCc1nnc(SCC(=O)N2CCOCC2)n1C` [CBK265850], 115.043%. With `COc1ccc(C(=O)Nc2nc3ccc(NC(C)=O)cc3s2)cc1OC` [CBK287311] the figure was 143.284%. On to `COc1ccc(S(=O)(=O)N2CCC(C(=O)N3CCN(Cc4ccc5c(c4)OCO5)CC3)CC2)cc1Cl` [CBK267614], for which the “% of control remaining” value was 137.813%.

`CCC(C)(NC=O)C(=O)Nc1ccccc1C(=O)O` (stereo not drawn) [CBK287177]: the “% of control remaining” value was 106.37%.

With `O=C(CSc1ccc2nnc(-c3ccccc3)n2n1)Nc1nccs1` [CBK287516], the “% of control remaining” value is on record as 144.545%. Turning to `CCCS(=O)(=O)n1ccn(-c2cccc(C(F)(F)F)c2)c1=O` [CBK106585], the “% of control remaining” value was 117.272%. In the case of `Cc1cc(=O)n2c3c(cc(S(=O)(=O)NCC4CCCO4)cc13)CC2` (stereo not drawn) [CBK307595] it was 107.796%; in that of `CC(C)NC(=O)[C@H]1O[C@H](CCN2CCN(c3ccccc3)CC2)CC[C@@H]1O` [CBK288719], 97.5267%. With `COc1ccc(Br)cc1/C=N/NC(=O)CC1C(=O)NN=C1C` (stereo not drawn) [CBK263359] the figure was 104.894%; with `O=C(CSc1nnc(Cc2cccc3ccccc23)n1-c1ccccc1)NC1CC1` [CBK267382], 148.261%. With `COCCOC(=O)C1=C(C)NC2=C(C(=O)CC(c3ccc(OC)cc3)C2)C1c1ccc(F)cc1` (stereo not drawn) [CBK293921] the figure was 134.071%.

`Cc1cc(C)n2nc(CCCOC(=O)c3ccn(C(C)C)n3)nc2n1` [CBK305272]: the “% of control remaining” value was found to be 107.109%.

Consider `CN(C)C(=O)CN1CCN(CCc2ccccc2)CC1` [CBK126455], for which the “% of control remaining” value was determined as 97.1323%. As for `O=C(c1cn2ccccc2n1)N1CCC(c2ccccc2)C1` (stereo not drawn) [CBK281850], the “% of control remaining” value is listed as 109.483%. With `COC(=O)CCc1ccc(S(=O)(=O)N2CCCN(Cc3cccc(C(F)(F)F)c3)CC2)cc1` [CBK062983] the figure was 111.861%; with `Oc1cccc(Sc2cncc(N3CCCC3)n2)c1` [CBK093796], 114.119%; with `O=S(=O)(Nc1cccc(O)c1)c1ccc(OC(F)(F)F)cc1` [CBK043822], 121.847%. With `CCN(Cc1cccs1)C(=O)NC1CCCc2c1cnn2CCO` (stereo not drawn) [CBK305768] the figure was 115.855%; with `CN1CCN(C(=O)CNS(=O)(=O)c2ccc(Br)cc2)CC1` [CBK034478], 93.8637%. With `Cc1ccc2c(C)c(-c3cncn3C(C)CN3CCOCC3)oc2c1` (stereo not drawn) [CBK281796] the figure was 113.247%. `CC(C)(O)C#Cc1ccc(C(=O)N2CCN(C/C=C/c3ccccc3)CC2)s1` [CBK267007]: the “% of control remaining” value turned out to be 135.655%. In the case of `Cc1nn(CCn2cncc2-c2cnn(C)c2)c(C)c1C` [CBK281783] it was 151.395%; in that of `CN(C)C(=O)c1ccc(-c2ncc(OCCN3CCCC3=O)nc2N)cc1` [CBK145184], 100%. With `O=[N+]([O-])c1cc(C(F)(F)F)ccc1N(CCO)CCO` [CBK262238] the figure was 99.5546%; with `CCCN1CC(NS(=O)(=O)c2ccnn2CCC)CC1=O` (stereo not drawn) [CBK306598], 137.922%. With `Cc1cn2c(=O)c(C(=O)Nc3ccccc3C)cnc2s1` [CBK287710] the figure was 101.439%; with `O=C(O)c1cc(-c2ccc(/C=C3\SC(=S)N(Cc4cccnc4)C3=O)o2)ccc1Cl` [CBK264712], 117.596%. Consider `O=C(CCc1ccc(O)c(O)c1)NNC(=S)Nc1ccc(F)cc1F` [CBK267041], for which the “% of control remaining” value came out at 81.6213%.

As for `O=C(Nc1cccc(-c2nnc3n2CCCCC3)c1)[C@@H]1CCCN1C(=O)c1cccs1` [CBK297090], the “% of control remaining” value was determined as 125.375%. In the case of `CC1(C)CCCN(C(=O)CCn2ccc3ccncc32)C1` [CBK285173] it was 123.565%; in that of `O=C(CC1Nc2ccccc2NC1=O)Nc1cccc(C(F)(F)F)c1` (stereo not drawn) [CBK262510], 100%; in that of `Cc1noc(/C=C\c2cc(C)n(-c3ccc(C(=O)O)cc3)c2C)c1[N+](=O)[O-]` [CBK268862], 157.143%. As to `O=C(NCCN1CCOCC1)c1ccc(NS(=O)(=O)c2ccccc2)cc1` [CBK270118], the “% of control remaining” value is on record as 113.174%.

Consider `O=C(c1ccccc1F)N1CCN(C(=O)[C@@H]2C[C@@H]3C=C[C@H]2C3)CC1` [CBK282011], for which the “% of control remaining” value was determined as 126.682%. With `CCN1CCN(C(=O)c2c[nH]c3ccccc23)CC1` [CBK200245] the figure was 119.086%. Turning to `Cc1ccc(OCC(O)CNC(=O)c2ccccc2C(=O)O)cc1` (stereo not drawn) [CBK264778], the “% of control remaining” value came out at 117.33%. With `O=C(O)C1C2CCC(C2)C1C(=O)NCCCCc1ccccc1` (stereo not drawn) [CBK286967] the figure was 139.261%; with `CN(C)/C=N/c1nc2c(nc(Br)n2C2CC(O)C(CO)O2)c(=O)[nH]1` (stereo not drawn) [CBK201319], 102.041%. In the case of `CC(=O)N1CCc2cc(NC(=O)Cn3ccnc3C(C)C)ccc21` [CBK281471] it was 118.497%; in that of `CCn1c(C)nc2cc(NC(=O)Cn3cc(C(=O)NC4CCCCC4)ccc3=O)ccc21` [CBK286095], 126.331%; in that of `CC(=O)Nc1nnc(SCC(=O)NCc2ccc3c(c2)OCO3)s1` [CBK287626], 159.755%. In the case of `Cc1c(NC(=O)COc2ccc([N+](=O)[O-])cc2)cccc1-c1nc2ncccc2o1` [CBK263912] it was 111.969%; in that of `O=C(c1c[nH]c(=O)n(-c2ccc(F)cc2)c1=O)N1CCc2ccccc21` [CBK287554], 132.729%; in that of `CCC1CC(C(F)(F)F)n2ncc(C(=O)O)c2N1` (stereo not drawn) [CBK286893], 111.15%. On to `CCONC(=O)c1cc(-c2ccccc2C)nc2c1cnn2C(C)C` [CBK304048], for which the “% of control remaining” value is recorded as 115.541%. In the case of `O=C(N/N=C/c1ccc(OC(=O)c2ccc([N+](=O)[O-])cc2)cc1)c1cccnc1` [CBK262146] it was 100%. In the case of `O=C(CN1CCC(Oc2nccnc2OCc2ccc(Cl)c(Cl)c2)CC1)Nc1ccccc1` [CBK153783] it was 79.9832%; in that of `O=C(NO)c1nccnc1-c1ccc(COc2ccccc2)cc1` [CBK050841], 139.609%; in that of `Cc1ccc(N2C(=O)CC(Sc3ncccc3C(=O)O)C2=O)c(C)c1` (stereo not drawn) [CBK269377], 113.74%. In the case of `COc1ccc(S(=O)(=O)N2CCC(C(=O)NC3(C(=O)O)CCCCC3)CC2)cc1OC` [CBK295646] it was 152.019%; in that of `CCC(=O)N1CCCc2cc(C(O)CN3CCN(c4cccc(OC)c4)CC3)ccc21` (stereo not drawn) [CBK286476], 107.766%. For the molecule `CCOc1ccnc(N2CCN(C(=O)CCc3ccsc3)CC2)n1` [CBK304942], the “% of control remaining” value was determined as 108.227%.

On to `CC(C)C(=O)N1CC2(CCN(Cc3ncc[nH]3)CC2)c2ccccc21` [CBK126731], for which the “% of control remaining” value is listed as 104.755%. With `CC(=O)Nc1ccc(S(=O)(=O)NC2(C(F)(F)F)NC(=O)N(c3ccc(Cl)cc3)C2=O)cc1` (stereo not drawn) [CBK267689] the figure was 147.381%; with `COc1ccc(CCNC(=O)CSC(C)C(=O)O)cc1` (stereo not drawn) [CBK297493], 162.907%; with `Cc1ccc2nc(SCC(=O)Nc3ccccc3Br)c(C#N)cc2c1` [CBK068169], 110.124%.

With `COc1ccc(OC(=O)c2cc(S(=O)(=O)N3CCCCCC3)ccc2Cl)cc1` [CBK264562], the “% of control remaining” value stood at 122.407%. In the case of `Cc1ccc2nc(-c3ccc4c(c3)CC(C)N4S(C)(=O)=O)cn2c1` (stereo not drawn) [CBK285184] it was 119.802%; in that of `O=C(O)CCc1nc2[nH]c(C(F)F)cc(=O)n2n1` [CBK286880], 99.3449%. With `COc1ccc(CN2C(=O)CC3(C2=O)C(=O)N(C)c2ccccc23)cc1OC` (stereo not drawn) [CBK075450] the figure was 129.726%.

Regarding `c1ccc(-c2nnc(-c3ccco3)c(-c3ccco3)n2)cc1` [CBK286196], the “% of control remaining” value is on record as 138.13%. With `O=C1CSC2(C(=O)Nc3ccccc32)N1c1ccc([N+](=O)[O-])cc1` (stereo not drawn) [CBK026035] the figure was 91.8097%; with `Cc1[nH]nc2nc(-c3cc(Br)ccc3O)cc(C(=O)O)c12` [CBK286834], 134.956%; with `Cc1ccc(-c2ncc(OCCN(C(C)C)C(C)C)nc2N)cc1C` [CBK145150], 124.471%.
